PubChem BioAssay AID493014 (National Center for Advancing Translational Sciences (NCATS), 2011)
This is one part of the list. These are further read-outs of the screen, such as a control signal, another cell line or another target. No call is given for them. The list favours compounds with an active or inconclusive main result. Potencies come from curve fits of mixed quality, noted in brackets.

Assay: qHTS Assay to Find Inhibitors of Chronic Active B-Cell Receptor Signaling
Details: ABC-DLBCL IkBa-CBG/CBR reporter, luminescence ratio (green luciferase fused to IkBa over red control in TMD8 lymphoma cells), 4 h
In short: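 TMD8 human ABC-DLBCL cells with doxycycline-inducible IκBα–green luciferase fusion and unfused red luciferase, in 0.5% FBS medium; compounds up to 46 uM, 4 h at 37C. Green/red luminescence ratio, filter-overlap corrected, fitted to concentration-response curves.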

[1] = measured here: CBR red luminescence, cell number
[2] = measured here: IkBa-CBG green luminescence

SMILES | AC50 [1] | AC50 [2]
COc1ccc(Cc2nc(-c3ccccc3)no2)cc1 | 0.461 µM [rising, full curve, poor fit] | 
COc1ccc(C(=O)CCNc2ccc(F)cc2)cc1 | 2.82 µM [rising, partial curve, poor fit] | 
Cc1ccc2nc(SCC(=O)c3c(N)n(C4CC4)c(=O)[nH]c3=O)[nH]c2c1 | 16.4 µM [rising, single point] | 
Cc1ccc2nc(Cl)c3nnnn3c2c1 | 2.24 µM [falling, partial curve, poor fit] | 
Cc1ccccc1NC(=O)c1nc2nccc(C)n2n1 | 35.5 µM [falling, single point] | 
Cn1cnnc1SCC(=O)Nc1ccc(F)cc1F | 6.31 µM [falling, full curve, poor fit] | 
COc1ccc2cc(C3(C)NC(=O)N(CC(=O)NCCC4=CCCCC4)C3=O)ccc2c1 (stereo not drawn) | 0.092 µM [falling, full curve, poor fit] | 
O=C(Nc1nc(-c2ccccc2)cs1)c1ccco1 | 7.94 µM [falling, partial curve] | 
Cc1ccc(S(=O)(=O)NC(=O)c2cccc(C)c2)cc1 | 5.62 µM [rising, partial curve] | 
O=C1CC(c2ccc(F)cc2)Cc2nc(NCC3CCCO3)ncc21 (stereo not drawn) | 4.47 µM [rising, full curve, poor fit] | 
COc1ccc(CNCc2c(O)c(Cl)cc3c(C)c(C)c(=O)oc23)c(OC)c1 | 0.447 µM [rising, full curve, poor fit] | 
COc1cc(C)nc2nc(SCc3ccccc3)nn12 | 1.12 µM [rising, partial curve, poor fit] | 
O=C(O)c1ccc2nc(-c3cc4cccc(O)c4oc3=O)[nH]c2c1 | 0.1 µM [falling, full curve, poor fit] | 
CC1(C)NC(=O)N(CC(O)COc2ccccc2C(=O)Nc2ccccc2)C1=O (stereo not drawn) | 3.66 µM [falling, single point] | 4.11 µM [rising, partial curve, poor fit]
O=C(O)c1cccc(Nc2ncnc3c2cnn3-c2ccccc2)c1 | 3.66 µM [falling, full curve] | 
CCOC(=O)C1CCN(S(=O)(=O)c2cc(Cl)c(C)cc2OC)CC1 | 4.11 µM [falling, single point] | 3.66 µM [rising, partial curve, poor fit]
CC(C)c1nc2oc3ccccc3c(=O)c2c(=O)n1-c1ccccc1 | 0.316 µM [falling, full curve] | 
O=C(CSc1nc2c(sc3ccccc32)c(=O)n1Cc1ccco1)NCC1CCCO1 (stereo not drawn) | 32.6 µM [falling, partial curve, poor fit] | 
CC(C)CCn1c(Sc2nc3ccccc3o2)nc2c1c(=O)[nH]c(=O)n2C | 7.31 µM [falling, partial curve] | 
CC(C)COc1ccc(C(=O)OCC(=O)NCc2cccs2)cc1 |  | 18.4 µM [falling, single point]
CC1CC(C)CN(C(=O)COC(=O)/C=C/c2ccco2)C1 (stereo not drawn) | 29.1 µM [rising, single point] | 

SMILES | AC50 [1] | AC50 [2]
Cc1ccccc1NC(=S)N(CCc1c(C)[nH]c2ccc(F)cc12)Cc1cccnc1 | 35.5 µM [falling, single point] | 
Cn1c2c(c(=O)n(C)c1=O)CN(Cc1ccc3c(c1)OCO3)CN2 | 0.326 µM [falling, full curve, poor fit] | 
CCOc1cc(/C=C/C(=O)c2ccc(OC)c(CN3CCOCC3)c2)cc(Br)c1O | 35.5 µM [falling, single point] | 
CCN(CC)C(=O)[C@H]1C[C@H](CC(=O)NCCCOC)C(=O)N2CCc3c([nH]c4cc(CCC(=O)N(C)C)ccc34)[C@]12C | 29.1 µM [rising, single point] | 
O=C(CSc1nc2ccccc2c(=O)n1-c1ccc(F)cc1F)Nc1ccc(N2CCOCC2)cc1 | 4.61 µM [falling, single point] | 
O=C(OCc1nnc(-c2ccccc2)o1)c1ccc2ccccc2n1 | 2.06 µM [rising, partial curve, poor fit] | 
C[C@]12c3[nH]c4ccc(Cl)cc4c3CCN1C(=O)[C@@H](CC(=O)NCC13CC4CC(CC(C4)C1)C3)C[C@@H]2C(=O)N1CCOCC1 | 18.4 µM [falling, single point] | 29.1 µM [rising, single point]
CCOc1ccc2nnc(-c3ccc(Br)cc3)n2n1 | 9.2 µM [rising, partial curve] | 
COc1ccc(C(=O)Nc2ccc3c(c2)C(=O)NC3=O)cc1 | 1 µM [falling, full curve, poor fit] | 
CC1CCN(CCc2nc3cc(NS(=O)(=O)c4ccccc4)ccc3n2C)CC1 | 35.5 µM [falling, single point] | 
O=C(N/N=C/c1ccncc1)c1cc2ccccc2cc1O | 17.8 µM [falling, single point] | 
Cc1nc2sc3c(c2c(=O)[nH]1)CCCC3 | 35.5 µM [rising, single point] | 
COc1cccc(C(=O)n2cnnc2N)c1OC | 3.26 µM [rising, partial curve, poor fit] | 
CC(=O)N(CCS(=O)(=O)c1ccc(Cl)cc1)Cc1cccs1 | 6.31 µM [rising, single point] | 
COc1ccc(/C=N/NC(=O)c2ccc(NC(C)=O)cc2)cc1COc1ccc(F)cc1F | 4.47 µM [rising, full curve] | 
CCOC(=O)/C=C1\Nc2ccccc2OC1=O | 13 µM [falling, partial curve] | 
CCOCCCNCc1ccc(OCc2ccccc2C)c(OC)c1 | 25.1 µM [falling, single point] | 
Cc1cc(/C=C(\C#N)c2nc3ccccc3[nH]2)c(C)n1C | 0.13 µM [rising, full curve, poor fit] | 
CC(=O)/C(=C/Nc1ccc(Oc2ccccc2)cc1)c1ccccc1 | 29.1 µM [rising, single point] | 25.9 µM [falling, partial curve, poor fit]
Cc1cccc(S(=O)(=O)N2CN(Cc3ccco3)c3nc4ccccc4nc32)c1 | 22.4 µM [falling, partial curve, poor fit] | 
O=C(NCCC1=CCCCC1)C(=O)NCC1OCCCN1S(=O)(=O)c1cc(F)ccc1F (stereo not drawn) | 5.01 µM [rising, single point] | 

SMILES | AC50 [1] | AC50 [2]
COc1cc(/C=C(/C#N)c2ccc(F)cc2)ccc1OCc1ccc(C(=O)O)o1 | 16.4 µM [falling, single point] | 
Cc1ccc(-c2noc(CN(C(=O)Cc3ccccc3)C(C)C)n2)cc1 | 16.4 µM [rising, single point] | 
Brc1cc2c(cc1-c1nc3ccccc3s1)OCO2 | 35.5 µM [rising, single point] | 
Cc1[nH]nc2c1C(c1ccoc1)C(C#N)=C(N)O2 (stereo not drawn) | 35.5 µM [falling, single point] | 
NS(=O)(=O)c1cc(C(=O)OCC(=O)N2CCc3ccccc3C2)ccc1Cl | 14.6 µM [rising, partial curve] | 16.4 µM [falling, partial curve, poor fit]
CSc1cccc(NC(=O)CC2Oc3ccccc3NC2=O)c1 (stereo not drawn) | 12.6 µM [rising, partial curve, poor fit] | 
Cc1cc(C)cc(N(C(=O)C2CCCC2)C2C=CS(=O)(=O)C2)c1 (stereo not drawn) | 22.4 µM [falling, single point] | 
CCCNc1nc(C)cc(-c2cc(-c3ccccc3)on2)n1 | 0.891 µM [rising, full curve, poor fit] | 
O=C(O)c1cccc(Nc2nc(-c3cc4ccccc4oc3=O)cs2)c1 | 6.31 µM [falling, partial curve] | 
Cc1cccc(-c2cc3nc(-c4ccccc4)cc(=O)n3[nH]2)c1 | 2 µM [falling, full curve] | 
Cc1ccc(C(C(=O)NC(C)(C)C)N(C(=O)c2csnn2)c2cccc(F)c2)o1 (stereo not drawn) | 0.326 µM [falling, full curve, poor fit] | 
COc1ccc(Cl)cc1/C=N/NC(=O)c1c(-c2ccccc2)noc1C | 14.1 µM [falling, single point] | 
COc1ccc2c(c1)CCc1c(C(=O)N3CCOCC3)noc1-2 | 1.64 µM [rising, full curve, poor fit] | 
CCCOc1cccc(C(=O)Nc2cccc(-c3nc4ncccc4o3)c2C)c1 | 5.01 µM [falling, partial curve, poor fit] | 
O=C(Nc1ccccc1)Nc1cccc(Cl)c1Cl | 20.6 µM [falling, single point] | 
CCOC(=O)C1CCCN(C(=O)c2cccs2)C1 (stereo not drawn) | 20.6 µM [rising, partial curve, poor fit] | 
c1ccc2c(c1)Cc1cc3ccccc3nc1-2 | 0.708 µM [rising, full curve, poor fit] | 
Cc1nnc(N2CCC(C(=O)N3CCCCCC3)CC2)c2nn(-c3ccc(Cl)cc3)c(C)c12 | 2.24 µM [falling, partial curve] | 
N#C/C(=C\c1ccc(-c2cccc(Cl)c2)o1)C(=O)Nc1cccc2cccnc12 | 29.1 µM [rising, single point] | 
Cc1cccc(NC(=O)c2ccc(COc3ccc(Cl)cc3Cl)o2)n1 | 23.1 µM [falling, single point] | 
CCCN1C2=NS(=O)(=O)CCN2c2ccccc21 | 13 µM [rising, partial curve, poor fit] | 

Structural class, the entries above containing two or more sulfur atoms.
SMILES | AC50 [1] | AC50 [2]
O=C(CSc1nc2c(sc3ccccc32)c(=O)n1Cc1ccco1)NCC1CCCO1 (stereo not drawn) | 32.6 µM [falling, partial curve, poor fit] | 
CC(=O)N(CCS(=O)(=O)c1ccc(Cl)cc1)Cc1cccs1 | 6.31 µM [rising, single point] | 

Looked up one by one from above (2):
SMILES | AC50 [1] | AC50 [2]
CCCOc1cccc(C(=O)Nc2cccc(-c3nc4ncccc4o3)c2C)c1 | 5.01 µM [falling, partial curve, poor fit] | 
COc1ccc(C(=O)CCNc2ccc(F)cc2)cc1 | 2.82 µM [rising, partial curve, poor fit] | 
